From US12582683B2, “Prostate neoantigens and their uses” (Jansen Biotech, Inc., priority 2019, dated 2026) come the findings set out here.

“Also recorded” adds a separate entry of the source. For some of these results: The expression values are mRNA levels of the gene; the protein chain is shown to identify it.

Series [1] has as its system FFPE tissue samples from prostate cancer, normal tissues, PBMCs and cell lines. Briefly: Expression profiling of prostate neoantigens in tumor and normal tissues (Fluidigm Biomark HD). Further details: species or system human. The conditions noted are these: panel of normal tissues, qPCR. In general terms: Quantitative PCR measures a nucleic acid by following its amplification.

The nature of series [2]: Prevalence of neoantigens in RNAseq data of frozen prostate cancer tissues (n = 11). More on the design: species or system human. The conditions noted are these: Table 22, prevalence in 11 frozen prostate cancer tissues.

“WKFEMSYTVGGPPPHVHARPRHWKTDR (listed as Homo sapiens) [AS18, splice variant NWD1]”: the “Normal Tissue Expression” value in series [1] is given as “Ovary, Prostate”. For the molecule “TEISCCTLSSEENEYLPRPEWQLQ (listed as Homo sapiens) [FUS3, fusion MSMB->NCOA4]”, the “Normal Tissue Expression” value in series [1] is on record as “Prostate”. As to “LVLGVLSGHSGSRL (listed as Homo sapiens) [AS8, splice variant CACNA1D]”, the “Frozen prostate cancer tissues* (n = 11)” value in series [2] turned out to be 0.0. The “Normal Tissue Expression” value in series [1] is reported as “None”. On to “DYWAQKEKGSSSFLRPSC (listed as Homo sapiens) [AS7, splice variant ACSM1]”, for which, in series [2], the “Frozen prostate cancer tissues* (n = 11)” value is given as 27.3. The “Normal Tissue Expression” value in series [1] is given as “None”.

With “VAMMVPDRQVHYDFGL (listed as Homo sapiens) [AS3, splice variant DNAH8]”, the “Frozen prostate cancer tissues* (n = 11)” value in series [2] came to 27.3. Besides, the “Normal Tissue Expression” value in series [1] is on record as “None”.

As to “VLRFLDLKVRYLHS (listed as Homo sapiens) [AS15, splice variant LRRC45]”, in series [2], the “Frozen prostate cancer tissues* (n = 11)” value came out at 36.4. In series [1], the “Normal Tissue Expression” value was “Ovary,; also recorded: Mammary Gland”.

For “DYWAQKEKISIPRTHLC (listed as Homo sapiens) [AS6, splice variant ACSM1]”, the “Frozen prostate cancer tissues* (n = 11)” value in series [2] is 27.3. Besides, the “Normal Tissue Expression” value in series [1] is on record as “None”. Regarding “NSKMALNSEALSVVSE (listed as Homo sapiens) [FUS5, fusion TMPRSS2->ERG]”, the “Normal Tissue Expression” value in series [1] is given as “None”. “KRSFAVTERII (listed as Homo sapiens) [AS13, splice variant GRIN3A]”: in series [2], the “Frozen prostate cancer tissues* (n = 11)” value was 27.3. Further, the “Normal Tissue Expression” value in series [1] is “None”. Turning to “HVVGYGHLDTSGSSSSSSWP (listed as Homo sapiens) [FUS15, fusion D2HGDH->GAL3ST2]”, the “Normal Tissue Expression” value in series [1] is “None”. As to “TGGKSTCSAPGPQSLPSTPFSTYPQWVILITEL (listed as Homo sapiens) [AS57, splice variant KLK3]”, the “Frozen prostate cancer tissues* (n = 11)” value in series [2] came to 36.4. In series [1], the “Normal Tissue Expression” value is reported as “Prostate”. The corresponding values for “GMECTLGQVGAPSPRREEDGWRGGHSRFKADVPAPQGPCWGGQPGSAPSSAPPEQSLLD (listed as Homo sapiens) [AS51, splice variant CPNE7]” are 9.1 and “Ovary”. Take “CEERGAAGSLISCE (listed as Homo sapiens) [FUS6, fusion TMPRSS2->ERG]”: in series [1], the “Normal Tissue Expression” value is reported as “None”. With “RTALTHNQDFSIYRLCCKRGSLCHASQARSPAFPKPVRPLPAPITRITPQLGGQSDSSQPLLTTGRPQGWQDQALRHTQQASPASCATITIPIHSAALGDHSGDPGPAWDTCPPLPLTTLIPRAPPPYGDSTARSWPSRCGPLG [MS3, neoantigen]”, the “Frozen prostate cancer tissues* (n = 11)” value in series [2] stood at 9.1. In addition, in series [1], the “Normal Tissue Expression” value is “None”. As to “DGHSYTSKVNCLLLQDGFHGCVSITGAAGRRNLSIFLFLMLCKLEFHAC (listed as Homo sapiens) [AS55, splice variant SPOCK1]”, the “Frozen prostate cancer tissues* (n = 11)” value in series [2] came to 18.2. Besides, the “Normal Tissue Expression” value in series [1] is on record as “Prostate”.

Regarding “EAFQRAAGEGGPGRGGARRGARVLQSPFCRAGAGEWLGHQSLR (listed as Homo sapiens) [AS41, splice variant RHPN1]”, the “Frozen prostate cancer tissues* (n = 11)” value in series [2] is given as 0.0. For the same molecule, the “Normal Tissue Expression” value in series [1] is reported as “Ovary”. “SLYHREKQLIAMDSAI (listed as Homo sapiens) [Neoantigen P22, 5LC45A3-ELK4]”: in series [1], the “Normal Tissue Expression” value is on record as “Prostate”. On the same count and under the same terms, with “QWQHYHRSGEAAGTPLWRPTRN (listed as Homo sapiens) [AS19, splice variant NWD1]” the entry was “Ovary, Prostate”; with “CGASACDVSLIAMDSA (listed as Homo sapiens) [FUS1, fusion SLC45A3->ELK4]”, “Prostate”; with “TEYNQKLQVNQFSESK (listed as Homo sapiens) [FUS2, fusion ARHGEF38->ARHGEF38-IT1]”, “Mammary Gland”. Still for that read-out and setting: with “NSKMALNSLNSIDDAQLTRIAPPRSHCCFWEVNAP (listed as Homo sapiens) [Neoantigen P35, TMPRSS2-ERG]” the entry was “None”. In the case of “TMPAILKLQKNCLLSL (listed as Homo sapiens) [MS8, neoantigen]”, in series [2], the “Frozen prostate cancer tissues* (n = 11)” value turned out to be 18.2. Besides, the “Normal Tissue Expression” value in series [1] is “None”. With “KIQNKNCPD (listed as Homo sapiens) [AS23, splice variant ZNF614]”, the “Frozen prostate cancer tissues* (n = 11)” value in series [2] is 45.5. For the same molecule, in series [1], the “Normal Tissue Expression” value is recorded as “Ovary, Prostate,; also recorded: Mammary Gland”. Regarding “FKKFDGPCGERGGGRTARALWARGDSVLTPALDPQTPVRAPSLTRAAAAV (listed as Homo sapiens) [AS47, splice variant AGRN]”, the “Frozen prostate cancer tissues* (n = 11)” value in series [2] was 0.0. In addition, the “Normal Tissue Expression” value in series [1] is on record as “Ovary”. Take “KMHFSLKEHPPPPCPP (listed as Homo sapiens) [FUS19, fusion GTF2F1->PSPN]”: the “Normal Tissue Expression” value in series [1] is reported as “None”. In the case of “YEAGMTLGGKILFFLFLLLPLSPFSLIF (listed as Homo sapiens) [Neoantigen P87, AR-Intron]”, the “Frozen prostate cancer tissues* (n = 11)” value in series [2] was 0.0. Moreover, the “Normal Tissue Expression” value in series [1] is reported as “Ovary, Prostate”.

“GNTTLQQLGEASQAPSGSLIPLRLPLLWEVRG (listed as Homo sapiens) [AS16, splice variant LRRC45]”: the “Frozen prostate cancer tissues* (n = 11)” value in series [2] came to 45.5. The “Normal Tissue Expression” value in series [1] is on record as “Ovary”.

B1: LWFQSSELSPTGAPWPSRRPTWRGTTVSPRTATSSARTCCGTKWPSSQEAALGLGSGLLRFSCGTAAIR (peptide, listed as Homo sapiens)
chain: LWFQSSELSPTGAPWPSRRPTWRGTTVSPRTATSSARTCCGTKWPSSQEAALGLGSGLLRFSCGTAAIR
notes: fusion NME4->DECR2
In the case of B1, the “Normal Tissue Expression” value in series [1] is on record as “None”.

B2: VPFRELKNQRTAQGAPGIHHAASPVAANLCDPARHAQHTRIPCGAGQVRAGRGPEAGGGVLQPQRPAPEKPGCPCRRGQPRLHTVKMWRA (peptide, listed as Homo sapiens)
chain: VPFRELKNQRTAQGAPGIHHAASPVAANLCDPARHAQHTRIPCGAGQVRAGRGPEAGGGVLQPQRPAPEKPGCPCRRGQPRLHTVKMWRA
notes: splice variant CPNE7
In the case of B2, the “Frozen prostate cancer tissues* (n = 11)” value in series [2] is 9.1. In series [1], the “Normal Tissue Expression” value is “None”.

B3: YAYKDFLWCFPFSLVFLQEIQICCHVSCLCCICCSTRICLGCLLELFLSRALRALHVLWNGFQLHCQ (peptide, listed as Homo sapiens)
chain: YAYKDFLWCFPFSLVFLQEIQICCHVSCLCCICCSTRICLGCLLELFLSRALRALHVLWNGFQLHCQ
notes: neoantigen
With B3, the “Frozen prostate cancer tissues* (n = 11)” value in series [2] is 9.1. Besides, in series [1], the “Normal Tissue Expression” value is on record as “None”.

B4: HYKLIQQPISLFSITDRLHKTFSQLPSVHLCSITFQWGHPPIFCSTNDICVTANFCISVTFLKPCFLLHEASASQ (peptide, listed as Homo sapiens)
chain: HYKLIQQPISLFSITDRLHKTFSQLPSVHLCSITFQWGHPPIFCSTNDICVTANFCISVTFLKPCFLLHEASASQ
notes: neoantigen
With B4, in series [2], the “Frozen prostate cancer tissues* (n = 11)” value was 18.2. The “Normal Tissue Expression” value in series [1] is “None”.

B5: VPFRELKNVSVLEGLRQGRLGGPCSCHCPRPSQARLTPVDVAGPFLCLGDPGLFPPVKSSI (peptide, listed as Homo sapiens)
chain: VPFRELKNVSVLEGLRQGRLGGPCSCHCPRPSQARLTPVDVAGPFLCLGDPGLFPPVKSSI
notes: splice variant CPNE7
As for B5, the “Frozen prostate cancer tissues* (n = 11)” value in series [2] amounted to 0.0. Moreover, in series [1], the “Normal Tissue Expression” value is listed as “Mammary Gland”.

B6: CHLFLQPQVGTPPPHTASARAPSGPPHPHESCPAGRRPARAAQTCARRQHGLPGCEEAGTARVPSLHLHLHQAALGAGRGRGWGEACAQVPPSRG (peptide, listed as Homo sapiens)
chain: CHLFLQPQVGTPPPHTASARAPSGPPHPHESCPAGRRPARAAQTCARRQHGLPGCEEAGTARVPSLHLHLHQAALGAGRGRGWGEACAQVPPSRG
notes: splice variant RECQL4
As to B6, in series [2], the “Frozen prostate cancer tissues* (n = 11)” value stood at 0.0. Further, the “Normal Tissue Expression” value in series [1] is reported as “None”.

B7: WGMELAASRRFSWDHHSAGGPPRVPSVRSGAAQVQPKDPLPLRTLAGCLARTAHLRPGAESLPQPQLHCT (peptide, listed as Homo sapiens)
chain: WGMELAASRRFSWDHHSAGGPPRVPSVRSGAAQVQPKDPLPLRTLAGCLARTAHLRPGAESLPQPQLHCT
notes: fusion INCA1->CAMTA2
B7: in series [1], the “Normal Tissue Expression” value is recorded as “None”.
